Earlier results in patent US20230355608A1, “TARGETING POLYCYTHEMIA VERA (PV)-INITIATING CELLS BY BLOCKING LEUKOTRIENE BINDING TO THEIR RECEPTORS” (UNIVERSITY OF MASSACHUSETTS, priority 2020, published 2023).
At least one compound was matched to its structure with a doubt left.

Legend:
JAK2 = settings: previous study (ref. 20); cited from earlier work
5-LO = settings: previous study (ref. 20); cited from earlier work

N#CC[C@H](C1CCCC1)n1cc(-c2ncnc3[nH]ccc23)cn1 [Ruxolitinib]
JAK2 phosphorylation (JAK2): blocks JAK2 phosphorylation | 5-LO expression (5-LO): does not affect 5-LO expression
